Screening data, single-dose tests

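Whole-parasite assay of Trypanosoma brucei over 72 hours; the read-out is not stated. Concentration: 30 µM. Direction is inferred from retests: higher values go with stronger inhibition. Values scatter widely below zero; nearly all retest evidence comes from the higher of the two concentrations used. Of about 64,000 compounds tested this way, about 940 (1.5%) reached 50% or more in at least one test.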

The filed quantity is “Percent Effect” (%). The controls that fix the scale are not given in the record; negative values are as filed. This is an unselected part of the compounds tested.

structure | Percent Effect
CC[C@@H]1N(CC2CC2)CCC[C@]12CCC(=O)N2CCOC.O=C(O)C(F)(F)F | 22.25%
CC1CCCN(Cc2ccc(CNC(=O)NCc3ccon3)cc2)C1 (centres unmarked) | -5.211%
[H][C@]12CO[C@H](CNS(C)(=O)=O)[C@@]1([H])CCN(Cc1cccnc1)C2 | -46.96%
[H][C@@]12CCCC[C@]1(O)CCN(C(=O)c1ccc(C)cc1)C2 | -8.791%
CC(C)c1noc(CCC(=O)N2CCN(C)CC2c2ccccc2)n1 (centres unmarked) | -44.4%
O=C(O)C(F)(F)F.[H][C@@]12CN(C(=O)c3ccncc3F)C[C@]1([H])OCCN2CC1CC1 | -44.16%
Cc1nc(O)cc(C2CCCN(Cc3c(Cl)cncc3Cl)C2)n1 (centres unmarked) | 10.61%
O=C(CCc1ccccn1)NC1CCN(c2cccc(Cl)c2)C1 (centres unmarked) | -25.68%
[H][C@@]12OCCN(C(=O)C3CCOCC3)[C@@]1([H])CC[C@H]2OCC(=O)N(C)C | -21.93%
O=C(O)C(F)(F)F.O=C1NC2(CCN(CC3CC3)CC2)CC1c1ccccc1 (centres unmarked) | -27.12%
Cc1cccc(S(=O)(=O)N2CCCc3c(c(=O)n(C)n3C)C2)c1 | -34.22%
CCN1CC2(CC1=O)CN(C(=O)c1ccsc1)CCN(C(=O)N(C)C)C2 (centres unmarked) | -10.98%
CNS(=O)(=O)CC(=O)NC(C)Cc1ccc(-c2ccccc2)cc1 (centres unmarked) | 2.632%
Cc1ccc(-c2ncc(CN3CCOC(c4ccco4)C3)s2)o1 (centres unmarked) | -23.67%
O=C(c1ccc(NCc2cccc(F)c2)cc1)N1CCC(CO)CC1 | -28.27%
CC1CCN(S(=O)(=O)NCc2ccccc2Cn2cccn2)CC1 | 7.466%
CCOC(C)c1nc(CNc2cccc(Cl)c2OC)cs1 (centres unmarked) | 14.4%
CCC(C)NC(=O)c1cccc(CNCc2csc(C(C)C)n2)c1 (centres unmarked) | -72.25%
CSC(C)C(=O)N(C)C1CCN(c2ccc(Cl)cc2)CC1 (centres unmarked) | 5.756%
[H][C@@]12CCN(C[C@@H]1CN1CCCC1)[C@@H](CNS(=O)(=O)c1ccc(Cl)cc1)C2 | -13.59%
Cc1ccc(C)c(S(=O)(=O)NC(=O)COc2cccc(C#N)c2)c1 | 5.459%
Cc1ccc2c(n1)N(C)CCN(C(=O)C1CC1)C2.O=C(O)C(F)(F)F | -20.32%
CC(C)N1CCC(c2cnc(-c3cn[nH]c3)cn2)CC1 | -8.352%
N#Cc1cnc2ccccc2c1N1CCC(C(=O)O)CC1 | -46.99%
Cc1cc(C)n(CCC(=O)N2CCCC(c3cc(C(N)=O)[nH]n3)C2)n1 (centres unmarked) | -27.08%
CO[C@H]1C[C@@H](O)C12CCN(CCOc1ccc(Cl)cc1)CC2 | -12.28%
CC(C)(C)c1noc(CN2CCCCC2Cn2cncn2)n1 (centres unmarked) | 5.932%
CC1CCCCN1C1CN(c2ccnc(C(=O)NCc3ccco3)c2)C1 (centres unmarked) | -113.6%
CCNc1cc2c(nn1)CCN(C(=O)C1CCc3ccccc31)C2 (centres unmarked) | -5.031%
OC(COCc1cccs1)CN1CCc2c(ncn2C2CC2)C1 (centres unmarked) | 10.38%
Cc1csc(CNc2cnn(C(C)C)c2)n1 | -22.88%
Cc1noc(C)c1-c1cccc(C2CCN(S(=O)(=O)N(C)C)CC2)n1 | 19.48%
O=C(O)C(F)(F)F.O=C(c1cccs1)N1CCC[C@]2(C[C@@H](OCc3ccncc3)CO2)C1 | 0.2141%
Cc1cc(C)n(CC(C)CNC(=O)CCc2ccco2)n1 (centres unmarked) | -3.376%
CCn1cc(C(=O)Nc2ccc(C)cc2C(=O)OC)cn1 | -59.23%
CC(Cn1cncn1)NC(=O)N1CC2(CCCC2)c2ccccc21 (centres unmarked) | -23.78%
CC(C)(C)c1ncc(CNCC2CCCn3ccnc32)s1 (centres unmarked) | 9.708%
Cc1nc(NCCN2CCCC2=O)cc(C2CN(C)CCO2)n1 (centres unmarked) | -9.462%
COc1cnc(C2(O)CCN(C(=O)c3cccnc3)CC2)c(OC)n1 | 13.58%
O=C(NCC1CC1)Nc1cnc2ccc(F)cc2c1O | 1.917%
CCn1ncnc1CN1CCC(CNC(=O)c2cccc(C)c2)C1 (centres unmarked) | 0.29%
CC(C)Nc1ncnc2c1CCN(C(=O)NCc1cccc(F)c1)CC2 | -38.76%
CSc1ccc(C(=O)C2CCCN(C(=O)CCCn3cncn3)C2)cc1 (centres unmarked) | -0.7784%
CN(C)CC1CN(C(=O)NCc2ccccc2)Cc2nccn2C1.O=C(O)C(F)(F)F (centres unmarked) | 45.99%
CN1CCOC(CNCc2coc(-c3ccc(Cl)cc3)n2)C1 (centres unmarked) | 99.53%

Repeated from the top, 2 entries:

structure	Percent Effect
CC[C@@H]1N(CC2CC2)CCC[C@]12CCC(=O)N2CCOC.O=C(O)C(F)(F)F	22.25%
CC1CCCN(Cc2ccc(CNC(=O)NCc3ccon3)cc2)C1 (centres unmarked)	-5.211%

Data taken from ChEMBL document CHEMBL3988442, “University of Dundee, Small-Polar-MMV Screening Library” (2021).